Data as given in article PMC7563477, “N-Terminal Segment of TvCyP2 Cyclophilin from Trichomonas vaginalis Is Involved in Self-Association, Membrane Interaction, and Subcellular Localization” (Biomolecules, 2020).
Results are given in words; binding and its absence hold for the method and conditions named. Binding calls can cover weak binding; strength is not graded here.

Target: TvCyP2-∆N (TvCyP2 without the N-terminal segment), recombinant with C-terminal His-tag (Trichomonas vaginalis)
Test: CD thermal unfolding; far-UV CD at 222 nm, 20 to 94 °C at 1 °C/min; TvCyP2-∆N (15 μm) with TvCyP2(3-18) peptide at 1:2 molar ratio; 20 mM NaH2PO4, pH 6.0; both purified

B1: TvCyP2_(3–18) peptide (peptide)
peptide: AFFATRVISAPKVTKK
notes: residues 3-18 of TvCyP2 of Trichomonas vaginalis (N-terminal segment); source: synthetic peptide, HPLC-grade, bought: Yao-Hong Biotechnology
  binding: binds
